# Data as given in PubChem BioAssay AID1259314 (Drosophila RNAi Screening Center, 2017).
# Test: 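Transmembrane protein genes affecting ATP after manganese overload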 (primary screen)
# Cells: Drosophila S2R+ cells
# Reagent: long dsRNA against Drosophila genes
# Time to read-out: 5 days (4 days knock-down, then 1 day metal exposure)
# Conditions: manganese chloride added to 15 mM for 24 hours
# Read-out: 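Luciferase ATP signal used as a proxy for viable cell number, reported as one averaged z-score per dsRNA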
# Direction: mean ATP z-score: higher = more ATP than the plate average, more viable cells under manganese
# Active means: 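Called active when the mean ATP z-score is above 1.5 or below -1.5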
# Meaning of the calls: active = strong ATP change, up or down; inactive = no strong ATP change
# Shown is one part, drawn at random, of about 3,100 reagents. Of all reagents, 289 (9.3%) were called active. 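Active includes both higher and lower ATP than plate average; check the z-score sign for direction.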 Unmarked entries are inactive. Reagents against one gene are numbered here. Names joined by + are all predicted targets of the reagent. Not given: the amount of reagent.
gene,reagent no.,mean ATP z-score
CG13801,1,-0.68
JhI-21 (Juvenile hormone Inducible-21),1,0.332
JhI-21 (Juvenile hormone Inducible-21),2,0.567
fz3 (frizzled 3),1,0.0601
fz3 (frizzled 3),2,2.05 (active)
scb (scab),1,0.418
scb (scab),2,-0.425
SPR (Sex peptide receptor),1,0.0193
SPR (Sex peptide receptor),2,-0.365
bdg (bedraggled),1,-0.0693
Ctns (Cystinosin),1,-0.969
Ctns (Cystinosin),2,1.07
bwa (brain washing),1,-0.275
bwa (brain washing),2,0.254
Pex3 (Peroxin 3),1,-1.18
CG3792,1,-0.767
CG10171,1,-0.314
CG10171,2,-0.901
CG9760,1,-1.13
CG9760,2,-0.726
Gr93d (Gustatory receptor 93d),1,0.149
Tl (Toll),1,0.181
Tl (Toll),2,0.438
Or85b (Odorant receptor 85b),1,-0.459
Or85b (Odorant receptor 85b),2,-0.286
Cad74A (Cadherin 74A),1,-1.23
CG13101,1,0.639
CG13101,2,0.25
NijC (Ninjurin C),1,0.317
NijC (Ninjurin C),2,1.58 (active)
sei (seizure),1,-1.07
mthl5 (methuselah-like 5),1,-0.751
mthl5 (methuselah-like 5),2,-0.617
SecCl (Secretory chloride channel),1,-0.956
SecCl (Secretory chloride channel),2,-0.33
PGRP-SC1a + PGRP-SC1b,1,2.2 (active)
CG7536,1,0.0494
CG7536,2,-0.46
LBR (Lamin B receptor),1,-0.556
LBR (Lamin B receptor),2,-1.74 (active)
ppk11 (pickpocket 11),1,-0.696
CG12914,1,0.3
CG10337,1,-0.489
CG10337,2,-0.654
Ae2 (Anion exchanger 2),1,1.09
Ae2 (Anion exchanger 2),2,-0.123
CG12376,1,-0.464
CG12376,2,0.895
rdog (red dog mine),1,-0.256
rdog (red dog mine),2,-0.757
Ir68b (Ionotropic receptor 68b),1,-0.889
Ir68b (Ionotropic receptor 68b),2,-1.14
InR (Insulin-like receptor),1,-0.128
InR (Insulin-like receptor),2,0.585
InR (Insulin-like receptor),3,0.217
CG44098,1,-0.908
CG44098,2,0.587
CG44098,3,-1.13
Elk (Eag-like K[+] channel),1,2.06 (active)
Elk (Eag-like K[+] channel),2,0.492
Ir31a (Ionotropic receptor 31a),1,-1.17
Piezo,1,-0.741
Piezo,2,-0.757
Tsp42Ei (Tetraspanin 42Ei),1,0.791
Tsp42Ei (Tetraspanin 42Ei),2,-0.0684
Tmtc4 (Transmembrane O-mannosyltransferase targeting cadherins 4),1,0.0613
Tmtc4 (Transmembrane O-mannosyltransferase targeting cadherins 4),2,0.609
CNT1 (Concentrative nucleoside transporter 1),1,-0.733
CNT1 (Concentrative nucleoside transporter 1),2,-0.291
wit (wishful thinking),1,0.466
wit (wishful thinking),2,-0.343
wit (wishful thinking),3,-0.843
CG1724,1,-1.4
CG1724,2,3.96 (active)
CG31445,1,-1.14
CG31445,2,0.474

Single entries from above:
Entry for Tmtc4 (Transmembrane O-mannosyltransferase targeting cadherins 4) #1 in “mean ATP z-score”: 0.0613
Ctns (Cystinosin) #1, mean ATP z-score → -0.969
Entry for PGRP-SC1a + PGRP-SC1b in “mean ATP z-score”: 2.2 (active)
Entry of CG3792 in “mean ATP z-score”: -0.767
